{"source": "paper doi:10.1101/2025.05.13.653872", "binders": {"B1": {"name": "PA1218 hypothetical protein (protein, UniProt Q9I4C0 1-292)", "chain": "MKHYRQVVSPQLRQQALDWILAAAQRPDPALEPEFDIADDERREAKKVRNLHRHDPLFWDDWFARSGLDALVRDHLRKPRLLRHAAFIKRHADESYIPLHQDIALWEKRYESAQTFWVALTPSRNDNGGMFYYPDDRTIFPHEFDLAYPMFKCIDLQANGISREQLVDAELDAGDVLVWPARTAHGSHNNRSGQLRIGMPIVFVEDDEFHQLNREDSMKTWIASNLKSVFPDEAITEDNLDHYLPQLCDYSLKMVTFLARFSRQFGHAPKIHDFIREPRLATLSASDAGARR"}, "B2": {"name": "PA5475 hypothetical protein (protein, UniProt Q9HT95 1-186)", "chain": "MSNVQNASRSSAFAAVEGDHWVESLDDGRHVLIRPLREEDRERERQFINRLSPATRHFRFLGEIKEASPALLDQLMDIDYQQSMAFVALVHEDGELREVGISRYAACCEEGQCECAVTIADDYQGLGLDAVLMRHLIDVARRNGFRQMYSVDSAANRAMRDLCCALGFVGQRDPDDSTQVIHRLAL"}, "B3": {"name": "PA0805 hypothetical protein (protein, UniProt Q9I5D3 1-75)", "chain": "MSIQHRTQDAIRTLTAAFAPFDCLIQATRKGNFSFTIVDQHGVACHSERLYPEQYDDSGKMEEVINRVRKKTLAA"}, "B4": {"name": "PA3374 conserved hypothetical protein (protein, UniProt Q9HYM7 1-387)", "chain": "MSSERVLSNARVVSAERVFVGSVLLRDGLIAAVDEGRSHLAGAEDLGGDYLLPGLVELHTDNLEKHMTPRPGVDWPSASAVLAHDAQIVSAGITTVFDALSIGDVNPKGKRMQQLPKMLEAIGEAAASGDARADHRLHLRCEVSHPQTLEVFRELVEHPLVQLVSVMDHAPGQRQFARLEKYREYYQGKYHLSDAEMDAFIVEQVANSERYSDAARAAIVDVCQGRGLSVASHDDATLAHVRESAGYGMAIAEFPTTVEAARASHEHGLQVLMGAPNVVRGGSHSGNVAAAQLAGIGVLDILSSDYYPASLLHAALLLAGEHSEYDAIRYDLPRAVAMVSRTPALAAGLTDRGEIRVGLRADLLQARALGNNQPVVRQVWRGGQRVF"}, "B5": {"name": "PA3233 hypothetical protein (protein, UniProt Q9HZ07 1-599)", "chain": "MPDSFNFASPPFDQLRPHQRETLKQALSVGYYAPGETLLEAGSAVPGLFVLLKGVVEERGDDGRVFAQYAADDLFDVRGLFSGSSKHRYLAIEESIVYELPASCFHQLCGENPGFARFFQADLAAKRQLAQRDGQNLAEFILTRIAREHLLPALEVEASLSLGDAARLQLSHGADALLVRLERDGPELGIVTRTDLMSAHFRDGRSELEAIGPLAHGPLASVELGDFLFDAMILMTRQRIERVAVTEDGQVIGLLHLTQVLSLFSTHSHVLALRIARADDLGDLRRCAETLDTLIATLAGNGIRLRFIMQLVSALNEQLLERLFELLLPPTLRGRCCLLVMGSEGRGEQLLKTDQDNALVLADDLPQEQALAMMQRFSAALLEFGYPPCPGGVMASRPEWCKPLAAWQAELRGTLLEGKPEQLLRLSILADAWPVAGNLQLFEPLRWQLRGFADGGERWLADIAAAALQFDTPLTFLGQLKTQDARLDLKRGGIFPIVHGIRTLALREGLETRGTLARIEALKRHKVLEARLADDLSESFELFLQLRLTRQLAGQRDGRQQGLDVSGMSRHDRDMLRYGLHVVKKFKQSVARQFHLETR"}, "B6": {"name": "PA1545 hypothetical protein (protein, UniProt Q04628 1-155)", "chain": "MLTLSGWITTQVPPSSRAAADAKAARTGTAEQAEDPAAGTDAADQHVQLSQAGRELAATMGVPVEEEDEDIPQELRPMVKMIRELKKKIEEKLRELQEAMRSSDPGAKEARVPELQKELQQLNSALQTATAAMASAIKEMGISDPALIMKVMGSR"}, "B7": {"name": "PA5269 hypothetical protein (protein, UniProt Q9HTT1 1-91)", "chain": "MSEQDDNQEDGFAEEKLIQAIENQIESENPPAARAVFNKLTLVGYERDEALGMMAYVLAHEINAMLAADRAFDSAGYEHALRALPTLPDDE"}, "B8": {"name": "PA3518 hypothetical protein (protein, UniProt Q9HY91 1-328)", "chain": "MNTRNFSLPQLQNLPIEEARIVADALAVHATSRQIDSAASKLAALAEAGLKGDRQAYAAYQQLLYVLSLSDDVATAQTRRWLARAIYRVEERFMPAADLSRALSEEDFQKRLEQEIAAQSRERHPMSQYVFSGSASRAQLQVFLRHQWFRTFRLYRDAADLLVNLTDVDEAAALARYLYGELGEEDEKGSHPRLLAKLLEAIGLEADFQAVSTMPEEIAYLNNRARAFRHAEVGWGLAVFYITELVVPGNHEKLYRALLQAGLSEDQAEYYKVHISLVPPRAKREWQLIARRIPDVQFQNAFLTSLSQHFRVERAYYDAIWEEMQSVK"}, "B9": {"name": "PA4567 50S ribosomal protein L27 (protein, UniProt Q9HVL7 1-85)", "chain": "MAHKKAGGSTRNGRDSESKRLGVKLFGGQAVKAGNILVRQRGTKFHAGYGVGLGKDHTLFAKVDGVVKFETKGAFGRKYVSIVAA"}}, "note": "No constants are given. Whether binding was seen depends on the method and setting. Binding seen in cells or lysates may run through a third protein. Here binding means that the protein was enriched with, or labelled near, the bait; the list need not be complete.", "data": [{"target": "3xFlag-PcrP overexpressed in P. aeruginosa ΔpcrP (P. aeruginosa PAO1) (UniProt Q9I040)", "assay": "affinity purification with mass spectrometry; 3xFlag-PcrP overexpressed in ΔpcrP grown in BMM8 (high Pi, 580 μM) or BMMH8 (low Pi, 50 μM) at 0 or 5 mM Ca2+; lysate (1 mg/ml) on ANTI-FLAG M2 magnetic beads, 2 h at 4°C, washed with 10 mM Tris-HCl pH 7.5; LC-MS/MS; ΔpcrP as negative control", "values": [{"binder": "B1", "binding": "binds"}, {"binder": "B2", "binding": "binds"}, {"binder": "B3", "binding": "binds"}, {"binder": "B4", "binding": "binds"}, {"binder": "B5", "binding": "binds"}, {"binder": "B6", "binding": "binds"}, {"binder": "B7", "binding": "binds"}, {"binder": "B8", "binding": "binds"}, {"binder": "B9", "binding": "binds"}]}, {"target": "6xHis-PcrP overexpressed in P. aeruginosa ΔpcrP (P. aeruginosa PAO1) (UniProt Q9I040)", "assay": "affinity purification with mass spectrometry; 6xHis-PcrP overexpressed in ΔpcrP grown in BMM8 at 0 or 5 mM Ca2+; lysate (1 mg/ml) on HisPur Ni-NTA resin, 2 h at 4°C, washed with 10 mM Tris-HCl pH 7.5; LC-MS/MS; ΔpcrP as negative control", "values": [{"binder": "B1", "binding": "binds"}, {"binder": "B2", "binding": "binds"}, {"binder": "B3", "binding": "binds"}, {"binder": "B4", "binding": "binds"}, {"binder": "B5", "binding": "binds"}, {"binder": "B6", "binding": "binds"}, {"binder": "B7", "binding": "binds"}, {"binder": "B8", "binding": "binds"}, {"binder": "B9", "binding": "binds"}]}]}
